Results are given in words; binding and its absence hold for the method and conditions named. Binding seen in cells or lysates may run through a third protein. Some results given as binding are weak or reduced against the parent protein; the word gives no strength.
Tests used:
[1] = molecular target: integrin β1 (human (endogenous in 686LN and its derivative M4 cells)) (UniProt P05556); experiment: co-IP; parental 686LN cells; data not shown
[2] = molecular target: integrin β1 (human (endogenous in 686LN and its derivative M4 cells)) (UniProt P05556); experiment: co-IP; about 500 μg lysate of CavS cells (pool of CavS-H and CavS-L clones) precleared with protein G-agarose 4 h at 4°C, incubated overnight with 5 μg antibody or non-immunised rabbit or mouse IgG precomplexed with protein G-agarose; 12% SDS-PAGE and immunoblotting

Protein sequences, listed by entry. Tags and fused reporters are not part of them.
UniProt P05556: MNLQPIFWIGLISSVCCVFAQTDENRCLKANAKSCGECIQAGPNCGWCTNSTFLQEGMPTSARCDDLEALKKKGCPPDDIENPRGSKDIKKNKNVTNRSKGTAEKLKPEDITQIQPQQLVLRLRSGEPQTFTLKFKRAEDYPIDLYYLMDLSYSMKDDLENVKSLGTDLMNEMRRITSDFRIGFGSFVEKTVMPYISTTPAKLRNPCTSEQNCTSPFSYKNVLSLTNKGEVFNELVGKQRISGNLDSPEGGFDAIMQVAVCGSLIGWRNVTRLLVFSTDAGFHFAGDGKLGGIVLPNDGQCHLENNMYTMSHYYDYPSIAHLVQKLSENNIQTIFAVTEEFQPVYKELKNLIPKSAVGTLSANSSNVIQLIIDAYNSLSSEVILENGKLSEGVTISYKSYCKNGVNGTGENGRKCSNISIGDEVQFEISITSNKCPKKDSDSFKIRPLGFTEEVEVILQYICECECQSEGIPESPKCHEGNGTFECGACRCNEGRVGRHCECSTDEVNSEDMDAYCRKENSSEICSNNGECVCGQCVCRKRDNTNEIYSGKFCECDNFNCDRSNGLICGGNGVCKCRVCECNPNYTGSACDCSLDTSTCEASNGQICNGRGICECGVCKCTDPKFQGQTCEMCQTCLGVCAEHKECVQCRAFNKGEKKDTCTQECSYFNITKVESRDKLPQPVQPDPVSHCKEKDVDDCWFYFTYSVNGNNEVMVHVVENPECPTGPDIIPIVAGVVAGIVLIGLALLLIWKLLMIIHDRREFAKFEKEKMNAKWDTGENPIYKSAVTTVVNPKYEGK
UniProt Q03135: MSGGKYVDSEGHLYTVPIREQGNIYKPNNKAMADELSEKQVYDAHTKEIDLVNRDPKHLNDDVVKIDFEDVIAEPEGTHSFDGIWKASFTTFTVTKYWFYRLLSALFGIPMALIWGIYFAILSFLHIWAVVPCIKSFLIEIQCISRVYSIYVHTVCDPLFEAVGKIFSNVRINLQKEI

Substance	binding [1]	binding [2]
Caveolin-1 (endogenous in parental 686LN cells) (from UniProt Q03135 1-178)	binds	–
Caveolin-1 (human cav-1 cDNA expressed from lentivirus in M4 cells, CavS) (from UniProt Q03135 1-178)	–	binds
